Reference: US8551937B2, “Peptide having an extending action for half-life of object peptide in plasma” (priority 2008, dated 2013)
Not every detail of the peptide structures is certain; ends, links or a residue may be inferred. Each block holds one compound with its values, some of them ahead of it. Where a SMILES comes first, the peptide text is derived from it. Bridges are numbered along the chain shown (N, C = ends).

Legend:
[1] = target: T1, human-type guanylate cyclase receptor A (GC-A receptor) (Homo sapiens, UniProt P16066); experiment: GC-A receptor agonist activity; format: cell-based
T1 sequence (P16066 33-1061): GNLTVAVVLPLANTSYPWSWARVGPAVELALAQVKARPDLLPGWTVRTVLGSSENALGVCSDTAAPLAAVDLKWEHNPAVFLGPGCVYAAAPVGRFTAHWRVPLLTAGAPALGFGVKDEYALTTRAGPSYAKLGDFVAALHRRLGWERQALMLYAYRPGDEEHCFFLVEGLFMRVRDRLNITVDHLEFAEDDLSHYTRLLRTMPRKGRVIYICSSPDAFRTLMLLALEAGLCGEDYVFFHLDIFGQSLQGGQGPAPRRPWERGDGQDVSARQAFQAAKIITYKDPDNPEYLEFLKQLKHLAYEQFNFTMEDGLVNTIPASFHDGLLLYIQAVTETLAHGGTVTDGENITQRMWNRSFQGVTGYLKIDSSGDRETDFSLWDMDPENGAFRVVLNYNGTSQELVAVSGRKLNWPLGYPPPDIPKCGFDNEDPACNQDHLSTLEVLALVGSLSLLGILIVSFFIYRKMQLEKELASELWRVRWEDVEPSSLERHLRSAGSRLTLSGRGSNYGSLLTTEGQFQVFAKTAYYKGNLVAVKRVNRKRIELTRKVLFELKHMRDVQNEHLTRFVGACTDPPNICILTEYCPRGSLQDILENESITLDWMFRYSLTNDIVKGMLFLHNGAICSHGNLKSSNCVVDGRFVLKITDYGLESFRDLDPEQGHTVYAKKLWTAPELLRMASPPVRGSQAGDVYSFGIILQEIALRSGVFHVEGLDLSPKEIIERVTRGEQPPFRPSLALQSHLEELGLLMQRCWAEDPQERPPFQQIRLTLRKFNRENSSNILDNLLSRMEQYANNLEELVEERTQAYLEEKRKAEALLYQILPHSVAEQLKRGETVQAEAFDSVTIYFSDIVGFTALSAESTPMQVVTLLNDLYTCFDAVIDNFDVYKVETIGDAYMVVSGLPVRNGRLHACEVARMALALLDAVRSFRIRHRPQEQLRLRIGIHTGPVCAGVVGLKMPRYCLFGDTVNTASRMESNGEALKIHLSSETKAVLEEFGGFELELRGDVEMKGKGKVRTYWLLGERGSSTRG

[2] = target: T2, human type guanylate cyclase receptor B (GC-B receptor) (Homo sapiens, UniProt P20594); experiment: GC-B receptor agonist activity; format: cell-based
T2 sequence (P20594 23-1047): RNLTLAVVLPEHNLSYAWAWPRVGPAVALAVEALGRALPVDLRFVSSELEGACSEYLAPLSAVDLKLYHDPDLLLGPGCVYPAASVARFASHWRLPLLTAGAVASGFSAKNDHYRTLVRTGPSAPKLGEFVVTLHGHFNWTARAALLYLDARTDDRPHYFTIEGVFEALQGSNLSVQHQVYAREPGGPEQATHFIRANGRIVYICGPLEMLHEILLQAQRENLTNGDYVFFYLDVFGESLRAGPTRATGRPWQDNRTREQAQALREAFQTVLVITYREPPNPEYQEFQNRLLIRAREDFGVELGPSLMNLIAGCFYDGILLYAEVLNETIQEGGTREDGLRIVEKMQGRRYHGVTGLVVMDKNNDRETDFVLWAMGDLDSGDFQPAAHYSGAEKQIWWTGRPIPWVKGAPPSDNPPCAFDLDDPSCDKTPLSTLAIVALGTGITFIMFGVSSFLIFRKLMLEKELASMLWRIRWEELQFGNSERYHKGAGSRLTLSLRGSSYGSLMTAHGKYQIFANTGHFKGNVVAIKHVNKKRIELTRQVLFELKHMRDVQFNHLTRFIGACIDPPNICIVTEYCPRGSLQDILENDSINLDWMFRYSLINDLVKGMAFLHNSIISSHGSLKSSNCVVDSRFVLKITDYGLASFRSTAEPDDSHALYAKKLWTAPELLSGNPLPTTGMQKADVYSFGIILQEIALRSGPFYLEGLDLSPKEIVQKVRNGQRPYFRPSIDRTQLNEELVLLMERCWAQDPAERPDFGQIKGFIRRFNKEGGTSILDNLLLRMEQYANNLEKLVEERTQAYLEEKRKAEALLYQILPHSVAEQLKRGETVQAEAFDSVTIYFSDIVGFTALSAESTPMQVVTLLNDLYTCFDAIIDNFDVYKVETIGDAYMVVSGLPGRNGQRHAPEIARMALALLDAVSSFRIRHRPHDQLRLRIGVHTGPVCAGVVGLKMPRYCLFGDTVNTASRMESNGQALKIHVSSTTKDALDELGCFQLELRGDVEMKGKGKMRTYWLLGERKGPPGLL

[3] = Extension-promoting action in mice (2), dose-dependency; format: in vivo, mouse; conditions: 50 and 200 nmol/kg subcutaneous once daily for 56 days, female mice
[4] = Extension-promoting action in mice (1); format: in vivo, mouse; conditions: 0.25 mg/kg subcutaneous twice daily for 29 days, female mice, vs medium group

GC-A receptor agonist activity [1]: retained
SMILES: CC[C@H](C)[C@@H]1NC(=O)[C@H](CCCNC(=N)N)NC(=O)[C@H](CC(=O)O)NC(=O)[C@H](CCSC)NC(=O)[C@H](CCCNC(=N)N)NC(=O)CNC(=O)CNC(=O)[C@H](Cc2ccccc2)NC(=O)[C@@H](NC(=O)[C@@H](NC(=O)[C@H](CCC(N)=O)NC(=O)[C@H](CCC(N)=O)NC(=O)[C@H](CCCNC(=N)N)NC(=O)[C@H](CCCCN)NC(=O)[C@H](CCC(=O)O)NC(=O)[C@H](CO)NC(=O)[C@H](CCCCN)NC(=O)[C@H](CCCCN)NC(=O)[C@@H]2CCCN2C(=O)[C@@H]2CCCN2C(=O)[C@H](C)NC(=O)[C@H](CCCCN)NC(=O)[C@H](CC(C)C)NC(=O)[C@H](CCC(N)=O)NC(=O)[C@@H]2CCCN2C(=O)[C@@H](N)CCCNC(=N)N)C(C)C)CSSC[C@@H](C(=O)N[C@@H](CC(N)=O)C(=O)N[C@@H](CO)C(=O)N[C@@H](Cc2ccccc2)C(=O)N[C@@H](CCCNC(=N)N)C(=O)N[C@@H](Cc2ccc(O)cc2)C(=O)O)NC(=O)CNC(=O)[C@H](CC(C)C)NC(=O)CNC(=O)[C@H](CO)NC(=O)[C@H](CCC(N)=O)NC(=O)[C@H](C)NC(=O)CNC1=O [Chimeric ANP (C)] (H-RPQLKAPPKKSEKRQQVCFGGRMDRIGAQSGLGCNSFRY-OH; disulfide 18-34; N-terminus and C-terminus assumed)

GC-B receptor agonist activity [2]: agonist activity
SMILES: CC[C@H](C)[C@@H]1NC(=O)[C@H](CCCNC(=N)N)NC(=O)[C@H](CC(=O)O)NC(=O)[C@H](CC(C)C)NC(=O)[C@H](CCCCN)NC(=O)[C@H](CC(C)C)NC(=O)CNC(=O)[C@H](Cc2ccccc2)NC(=O)[C@@H](NC(=O)[C@@H](NC(=O)[C@H](CCC(N)=O)NC(=O)[C@H](CCC(N)=O)NC(=O)[C@H](CCCNC(=N)N)NC(=O)[C@H](CCCCN)NC(=O)[C@H](CCC(=O)O)NC(=O)[C@H](CO)NC(=O)[C@H](CCCCN)NC(=O)[C@H](CCCCN)NC(=O)[C@@H]2CCCN2C(=O)[C@@H]2CCCN2C(=O)[C@H](C)NC(=O)[C@H](CCCCN)NC(=O)[C@H](CC(C)C)NC(=O)[C@H](CCC(N)=O)NC(=O)[C@@H]2CCCN2C(=O)[C@@H](N)CCCNC(=N)N)C(C)C)CSSC[C@@H](C(=O)O)NC(=O)CNC(=O)[C@H](CC(C)C)NC(=O)CNC(=O)[C@H](CO)NC(=O)[C@H](CCSC)NC(=O)[C@H](CO)NC(=O)CNC1=O [Chimeric CNP (A)] (H-RPQLKAPPKKSEKRQQVCFGLKLDRIGSMSGLGC-OH; disulfide 18-34; N-terminus and C-terminus assumed)

More lines, now with the values behind:

SMILES: CC[C@H](C)[C@@H]1NC(=O)[C@H](CCCNC(=N)N)NC(=O)[C@H](CC(=O)O)NC(=O)[C@H](CCSC)NC(=O)[C@H](CCCNC(=N)N)NC(=O)CNC(=O)CNC(=O)[C@H](Cc2ccccc2)NC(=O)[C@@H](N)CSSC[C@@H](C(=O)N[C@@H](CC(N)=O)C(=O)N[C@@H](CO)C(=O)N[C@@H](Cc2ccccc2)C(=O)N[C@@H](CCCNC(=N)N)C(=O)N[C@@H](Cc2ccc(O)cc2)C(=O)N[C@H](C(=O)N[C@@H](CCC(N)=O)C(=O)N[C@@H](CCC(N)=O)C(=O)N[C@@H](CCCNC(=N)N)C(=O)N[C@@H](CCCCN)C(=O)N[C@@H](CCC(=O)O)C(=O)N[C@@H](CO)C(=O)N[C@@H](CCCCN)C(=O)N[C@@H](CCCCN)C(=O)N2CCC[C@H]2C(=O)N2CCC[C@H]2C(=O)N[C@@H](C)C(=O)N[C@@H](CCCCN)C(=O)N[C@@H](CC(C)C)C(=O)N[C@@H](CCC(N)=O)C(=O)N2CCC[C@H]2C(=O)N[C@@H](CCCNC(=N)N)C(=O)O)C(C)C)NC(=O)CNC(=O)[C@H](CC(C)C)NC(=O)CNC(=O)[C@H](CO)NC(=O)[C@H](CCC(N)=O)NC(=O)[C@H](C)NC(=O)CNC1=O [Chimeric ANP (A)] (H-CFGGRMDRIGAQSGLGCNSFRYVQQRKESKKPPAKLQPR-OH; disulfide 1-17; N-terminus and C-terminus assumed)
GC-A receptor agonist activity [1]: retained

SMILES: CC[C@H](C)[C@@H]1NC(=O)[C@H](CCCNC(=N)N)NC(=O)[C@H](CC(=O)O)NC(=O)[C@H](CCSC)NC(=O)[C@H](CCCNC(=N)N)NC(=O)CNC(=O)CNC(=O)[C@H](Cc2ccccc2)NC(=O)[C@@H](NC(=O)[C@H](CCCNC(=N)N)NC(=O)[C@@H]2CCCN2C(=O)[C@H](CCC(N)=O)NC(=O)[C@H](CC(C)C)NC(=O)[C@H](CCCCN)NC(=O)[C@H](C)NC(=O)[C@@H]2CCCN2C(=O)[C@@H]2CCCN2C(=O)[C@H](CCCCN)NC(=O)[C@H](CCCCN)NC(=O)[C@H](CO)NC(=O)[C@H](CCC(=O)O)NC(=O)[C@H](CCCCN)NC(=O)[C@H](CCCNC(=N)N)NC(=O)[C@H](CCC(N)=O)NC(=O)[C@H](CCC(N)=O)NC(=O)[C@@H](N)C(C)C)CSSC[C@@H](C(=O)N[C@@H](CC(N)=O)C(=O)N[C@@H](CO)C(=O)N[C@@H](Cc2ccccc2)C(=O)N[C@@H](CCCNC(=N)N)C(=O)N[C@@H](Cc2ccc(O)cc2)C(=O)O)NC(=O)CNC(=O)[C@H](CC(C)C)NC(=O)CNC(=O)[C@H](CO)NC(=O)[C@H](CCC(N)=O)NC(=O)[C@H](C)NC(=O)CNC1=O [Chimeric ANP (B)] (H-VQQRKESKKPPAKLQPRCFGGRMDRIGAQSGLGCNSFRY-OH; disulfide 18-34; N-terminus and C-terminus assumed)
GC-A receptor agonist activity [1]: retained

SMILES: CC[C@H](C)[C@@H]1NC(=O)[C@H](CCCNC(=N)N)NC(=O)[C@H](CC(=O)O)NC(=O)[C@H](CC(C)C)NC(=O)[C@H](CCCCN)NC(=O)[C@H](CC(C)C)NC(=O)CNC(=O)[C@H](Cc2ccccc2)NC(=O)[C@@H](NC(=O)CNC(=O)[C@H](CCCCN)NC(=O)[C@H](CO)NC(=O)[C@H](CC(C)C)NC(=O)CN)CSSC[C@@H](C(=O)N[C@H](C(=O)N[C@@H](CCC(N)=O)C(=O)N[C@@H](CCC(N)=O)C(=O)N[C@@H](CCCNC(=N)N)C(=O)N[C@@H](CCCCN)C(=O)N[C@@H](CC(=O)O)C(=O)N[C@@H](CO)C(=O)N[C@@H](CCCCN)C(=O)N[C@@H](CCCCN)C(=O)N2CCC[C@H]2C(=O)N2CCC[C@H]2C(=O)N[C@@H](C)C(=O)N[C@@H](CCCCN)C(=O)N[C@@H](CC(C)C)C(=O)N[C@@H](CCC(N)=O)C(=O)N2CCC[C@H]2C(=O)N[C@@H](CCCNC(=N)N)C(=O)O)C(C)C)NC(=O)CNC(=O)[C@H](CC(C)C)NC(=O)CNC(=O)[C@H](CO)NC(=O)[C@H](CCSC)NC(=O)[C@H](CO)NC(=O)CNC1=O [Chimeric CNP (J)] (H-GLSKGCFGLKLDRIGSMSGLGCVQQRKDSKKPPAKLQPR-OH; disulfide 6-22; N-terminus and C-terminus assumed)
body length [3]: significantly increased in a dose-dependent manner
tail length [3]: significantly increased in a dose-dependent manner

SMILES: CC[C@H](C)[C@@H]1NC(=O)[C@H](CCCNC(=N)N)NC(=O)[C@H](CC(=O)O)NC(=O)[C@H](CC(C)C)NC(=O)[C@H](CCCCN)NC(=O)[C@H](CC(C)C)NC(=O)CNC(=O)[C@H](Cc2ccccc2)NC(=O)[C@@H](NC(=O)CNC(=O)[C@H](CCCCN)NC(=O)[C@H](CO)NC(=O)[C@H](CC(C)C)NC(=O)CN)CSSC[C@@H](C(=O)O)NC(=O)CNC(=O)[C@H](CC(C)C)NC(=O)CNC(=O)[C@H](CO)NC(=O)[C@H](CCSC)NC(=O)[C@H](CO)NC(=O)CNC1=O [Native CNP-22, reference compound]
body length [4]: showed no difference
